Laboratory results: the supplement of paper PMC12819154, “High-throughput peptide-centric local stability assay extends protein–ligand identification to membrane proteins, tissues and bacteria” (Nature Structural & Molecular Biology, 2025)
This is one part of the list. Most entries show no effect beyond the scatter of the controls.

Protein sequences, listed by entry. Tags and fused reporters are not part of them. Lines headed by an entry give the natural chain unless they say otherwise; changes in a name come on top.
UniProt Q99L85: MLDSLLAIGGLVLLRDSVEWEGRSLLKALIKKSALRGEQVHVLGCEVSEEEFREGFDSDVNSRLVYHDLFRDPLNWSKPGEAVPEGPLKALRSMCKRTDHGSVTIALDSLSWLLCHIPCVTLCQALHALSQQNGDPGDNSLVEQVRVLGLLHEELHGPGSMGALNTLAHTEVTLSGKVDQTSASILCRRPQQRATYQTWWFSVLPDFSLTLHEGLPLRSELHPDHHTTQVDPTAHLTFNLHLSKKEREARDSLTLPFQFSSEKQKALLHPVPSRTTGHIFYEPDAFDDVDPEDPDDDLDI
UniProt Q924T3: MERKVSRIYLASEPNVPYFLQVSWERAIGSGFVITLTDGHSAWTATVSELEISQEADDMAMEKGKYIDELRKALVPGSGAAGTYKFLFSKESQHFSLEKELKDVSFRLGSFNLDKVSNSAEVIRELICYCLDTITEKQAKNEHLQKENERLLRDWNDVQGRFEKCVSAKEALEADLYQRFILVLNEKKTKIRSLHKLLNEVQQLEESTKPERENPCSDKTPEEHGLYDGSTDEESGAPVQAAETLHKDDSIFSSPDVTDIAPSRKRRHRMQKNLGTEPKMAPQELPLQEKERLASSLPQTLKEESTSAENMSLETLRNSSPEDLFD
UniProt Q99KP6: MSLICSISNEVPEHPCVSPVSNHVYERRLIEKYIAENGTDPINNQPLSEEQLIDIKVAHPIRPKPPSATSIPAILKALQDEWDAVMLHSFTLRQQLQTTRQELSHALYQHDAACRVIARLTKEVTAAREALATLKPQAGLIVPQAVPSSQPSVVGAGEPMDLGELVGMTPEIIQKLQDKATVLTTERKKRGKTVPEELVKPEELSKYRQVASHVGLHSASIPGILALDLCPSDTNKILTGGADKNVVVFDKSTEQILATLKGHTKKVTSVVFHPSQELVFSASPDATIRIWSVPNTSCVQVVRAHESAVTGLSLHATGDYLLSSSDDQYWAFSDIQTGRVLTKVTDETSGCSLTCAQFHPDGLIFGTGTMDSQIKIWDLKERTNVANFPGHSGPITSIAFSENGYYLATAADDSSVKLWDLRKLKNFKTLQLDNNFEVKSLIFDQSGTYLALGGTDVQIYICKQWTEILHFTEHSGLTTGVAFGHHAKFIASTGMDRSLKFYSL
UniProt Q922D8, whole entry: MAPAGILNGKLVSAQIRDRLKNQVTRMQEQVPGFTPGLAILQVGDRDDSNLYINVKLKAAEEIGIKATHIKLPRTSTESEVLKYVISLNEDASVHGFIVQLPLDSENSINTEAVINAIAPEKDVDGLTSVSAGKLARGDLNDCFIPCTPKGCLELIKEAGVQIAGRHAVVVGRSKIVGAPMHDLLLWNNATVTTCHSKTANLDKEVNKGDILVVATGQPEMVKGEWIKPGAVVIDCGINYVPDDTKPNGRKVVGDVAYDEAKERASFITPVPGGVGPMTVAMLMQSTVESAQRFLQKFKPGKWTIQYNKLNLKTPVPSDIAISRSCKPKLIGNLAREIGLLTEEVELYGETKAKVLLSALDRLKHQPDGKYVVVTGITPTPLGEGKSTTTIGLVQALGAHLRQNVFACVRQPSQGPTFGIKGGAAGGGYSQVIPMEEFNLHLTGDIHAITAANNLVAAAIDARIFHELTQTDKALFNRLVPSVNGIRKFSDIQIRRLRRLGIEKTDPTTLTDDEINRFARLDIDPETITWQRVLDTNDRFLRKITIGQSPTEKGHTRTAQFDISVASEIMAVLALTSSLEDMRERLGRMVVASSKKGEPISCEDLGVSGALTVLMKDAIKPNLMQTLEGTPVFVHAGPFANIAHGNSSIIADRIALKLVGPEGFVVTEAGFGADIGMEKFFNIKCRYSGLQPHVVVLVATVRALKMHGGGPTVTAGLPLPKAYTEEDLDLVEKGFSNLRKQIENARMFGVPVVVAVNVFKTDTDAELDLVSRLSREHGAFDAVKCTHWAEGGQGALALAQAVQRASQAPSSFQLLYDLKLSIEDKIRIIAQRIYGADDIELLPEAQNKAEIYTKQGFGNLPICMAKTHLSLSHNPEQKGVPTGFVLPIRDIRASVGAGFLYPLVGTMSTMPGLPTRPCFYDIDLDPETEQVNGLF
UniProt Q924Z4: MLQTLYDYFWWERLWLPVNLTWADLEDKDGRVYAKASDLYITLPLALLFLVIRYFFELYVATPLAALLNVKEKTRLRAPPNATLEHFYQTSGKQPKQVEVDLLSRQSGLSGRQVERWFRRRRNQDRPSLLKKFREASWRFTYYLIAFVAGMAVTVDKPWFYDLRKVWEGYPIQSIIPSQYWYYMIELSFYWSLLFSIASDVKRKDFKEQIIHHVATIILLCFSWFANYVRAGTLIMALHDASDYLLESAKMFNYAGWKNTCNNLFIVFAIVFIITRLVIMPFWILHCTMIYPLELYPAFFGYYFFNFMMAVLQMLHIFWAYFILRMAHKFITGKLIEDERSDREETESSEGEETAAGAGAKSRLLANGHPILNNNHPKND
UniProt Q920D3: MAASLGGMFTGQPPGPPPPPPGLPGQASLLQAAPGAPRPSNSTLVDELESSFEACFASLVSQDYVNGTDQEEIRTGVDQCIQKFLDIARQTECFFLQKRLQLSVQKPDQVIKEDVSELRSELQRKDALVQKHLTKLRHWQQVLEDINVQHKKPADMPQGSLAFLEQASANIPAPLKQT
UniProt Q99LG2: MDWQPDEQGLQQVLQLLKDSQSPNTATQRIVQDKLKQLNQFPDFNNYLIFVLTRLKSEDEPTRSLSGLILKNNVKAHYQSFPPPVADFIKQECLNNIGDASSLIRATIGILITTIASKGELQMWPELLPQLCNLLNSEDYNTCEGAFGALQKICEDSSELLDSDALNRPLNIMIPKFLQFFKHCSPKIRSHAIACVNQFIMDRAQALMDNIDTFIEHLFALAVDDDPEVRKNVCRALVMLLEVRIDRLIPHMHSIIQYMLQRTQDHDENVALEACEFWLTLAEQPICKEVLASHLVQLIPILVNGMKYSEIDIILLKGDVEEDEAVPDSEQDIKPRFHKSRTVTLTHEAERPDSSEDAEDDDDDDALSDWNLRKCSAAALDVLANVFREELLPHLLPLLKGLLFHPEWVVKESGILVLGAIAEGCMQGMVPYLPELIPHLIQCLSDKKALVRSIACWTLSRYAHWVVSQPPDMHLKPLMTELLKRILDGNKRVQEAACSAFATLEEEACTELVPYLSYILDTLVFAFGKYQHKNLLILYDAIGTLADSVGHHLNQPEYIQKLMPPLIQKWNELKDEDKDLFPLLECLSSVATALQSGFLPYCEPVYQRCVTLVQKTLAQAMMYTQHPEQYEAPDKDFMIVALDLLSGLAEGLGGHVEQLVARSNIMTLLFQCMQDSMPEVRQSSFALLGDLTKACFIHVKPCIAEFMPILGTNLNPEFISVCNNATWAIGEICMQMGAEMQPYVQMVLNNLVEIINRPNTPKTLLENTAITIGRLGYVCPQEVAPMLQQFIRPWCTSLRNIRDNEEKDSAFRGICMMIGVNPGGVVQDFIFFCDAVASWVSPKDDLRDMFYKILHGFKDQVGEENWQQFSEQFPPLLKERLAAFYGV
UniProt Q99KN2: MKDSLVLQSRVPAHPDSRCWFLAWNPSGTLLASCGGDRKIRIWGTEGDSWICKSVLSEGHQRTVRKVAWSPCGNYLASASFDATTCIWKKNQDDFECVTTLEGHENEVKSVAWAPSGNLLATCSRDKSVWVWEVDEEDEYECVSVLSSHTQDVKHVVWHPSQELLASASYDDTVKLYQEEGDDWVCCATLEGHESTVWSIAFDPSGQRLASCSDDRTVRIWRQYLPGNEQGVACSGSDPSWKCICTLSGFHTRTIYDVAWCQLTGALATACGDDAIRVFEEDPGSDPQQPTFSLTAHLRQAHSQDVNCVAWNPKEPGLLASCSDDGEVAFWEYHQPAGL
UniProt Q922B2: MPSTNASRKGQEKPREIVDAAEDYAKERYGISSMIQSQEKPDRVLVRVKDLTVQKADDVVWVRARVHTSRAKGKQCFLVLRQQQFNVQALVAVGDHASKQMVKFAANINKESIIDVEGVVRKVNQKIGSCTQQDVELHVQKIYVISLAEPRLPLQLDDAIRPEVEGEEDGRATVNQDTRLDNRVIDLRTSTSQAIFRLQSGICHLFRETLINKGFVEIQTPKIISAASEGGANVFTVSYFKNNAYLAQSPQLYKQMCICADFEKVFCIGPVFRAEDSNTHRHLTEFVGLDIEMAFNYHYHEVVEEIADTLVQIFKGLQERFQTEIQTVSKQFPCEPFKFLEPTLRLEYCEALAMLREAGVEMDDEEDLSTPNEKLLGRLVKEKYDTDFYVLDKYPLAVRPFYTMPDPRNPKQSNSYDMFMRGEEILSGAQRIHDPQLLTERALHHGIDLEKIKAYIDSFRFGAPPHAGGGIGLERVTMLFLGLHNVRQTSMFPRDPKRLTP
UniProt Q99LE1: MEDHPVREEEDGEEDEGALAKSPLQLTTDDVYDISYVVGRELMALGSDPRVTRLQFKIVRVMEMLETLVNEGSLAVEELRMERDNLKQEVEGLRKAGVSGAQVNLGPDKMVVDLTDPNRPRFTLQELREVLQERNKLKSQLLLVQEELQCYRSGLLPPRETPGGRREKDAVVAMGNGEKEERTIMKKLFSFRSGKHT
UniProt Q923K4: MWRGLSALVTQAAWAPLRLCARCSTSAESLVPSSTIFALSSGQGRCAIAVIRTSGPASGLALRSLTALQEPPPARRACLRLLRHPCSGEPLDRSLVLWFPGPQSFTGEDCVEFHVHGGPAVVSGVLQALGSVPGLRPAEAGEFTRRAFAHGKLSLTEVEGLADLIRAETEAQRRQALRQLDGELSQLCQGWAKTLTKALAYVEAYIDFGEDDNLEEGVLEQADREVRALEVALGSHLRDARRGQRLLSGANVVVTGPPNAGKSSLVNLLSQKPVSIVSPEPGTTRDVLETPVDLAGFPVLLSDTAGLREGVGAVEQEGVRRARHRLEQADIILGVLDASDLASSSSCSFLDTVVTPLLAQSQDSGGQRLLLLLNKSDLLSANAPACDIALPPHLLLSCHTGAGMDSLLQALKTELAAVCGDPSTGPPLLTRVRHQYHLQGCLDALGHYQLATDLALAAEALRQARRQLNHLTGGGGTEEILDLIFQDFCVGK
UniProt Q99KD5: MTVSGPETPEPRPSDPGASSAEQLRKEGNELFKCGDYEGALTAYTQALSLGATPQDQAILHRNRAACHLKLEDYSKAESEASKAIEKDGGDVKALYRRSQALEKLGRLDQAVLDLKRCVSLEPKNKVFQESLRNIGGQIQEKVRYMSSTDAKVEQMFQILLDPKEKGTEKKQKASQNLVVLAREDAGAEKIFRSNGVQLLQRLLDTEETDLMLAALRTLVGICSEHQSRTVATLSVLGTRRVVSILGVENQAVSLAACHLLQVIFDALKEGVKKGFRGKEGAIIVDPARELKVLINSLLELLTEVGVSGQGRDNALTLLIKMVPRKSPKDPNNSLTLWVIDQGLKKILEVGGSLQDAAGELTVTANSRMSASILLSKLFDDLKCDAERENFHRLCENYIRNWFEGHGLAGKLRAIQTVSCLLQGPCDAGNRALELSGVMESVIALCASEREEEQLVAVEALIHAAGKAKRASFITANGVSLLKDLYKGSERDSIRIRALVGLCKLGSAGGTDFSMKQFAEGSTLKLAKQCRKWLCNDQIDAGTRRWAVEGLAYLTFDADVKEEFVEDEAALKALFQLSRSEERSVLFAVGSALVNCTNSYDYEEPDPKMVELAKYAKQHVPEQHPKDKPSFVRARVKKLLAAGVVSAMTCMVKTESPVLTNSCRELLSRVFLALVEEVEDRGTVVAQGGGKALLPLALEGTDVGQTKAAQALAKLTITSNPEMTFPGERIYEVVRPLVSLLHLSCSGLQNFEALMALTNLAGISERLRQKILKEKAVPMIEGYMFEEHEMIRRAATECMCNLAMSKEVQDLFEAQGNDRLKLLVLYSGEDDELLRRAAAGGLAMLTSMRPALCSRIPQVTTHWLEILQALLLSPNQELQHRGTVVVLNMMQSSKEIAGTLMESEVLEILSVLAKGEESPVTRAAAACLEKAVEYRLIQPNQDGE
UniProt Q99JY0: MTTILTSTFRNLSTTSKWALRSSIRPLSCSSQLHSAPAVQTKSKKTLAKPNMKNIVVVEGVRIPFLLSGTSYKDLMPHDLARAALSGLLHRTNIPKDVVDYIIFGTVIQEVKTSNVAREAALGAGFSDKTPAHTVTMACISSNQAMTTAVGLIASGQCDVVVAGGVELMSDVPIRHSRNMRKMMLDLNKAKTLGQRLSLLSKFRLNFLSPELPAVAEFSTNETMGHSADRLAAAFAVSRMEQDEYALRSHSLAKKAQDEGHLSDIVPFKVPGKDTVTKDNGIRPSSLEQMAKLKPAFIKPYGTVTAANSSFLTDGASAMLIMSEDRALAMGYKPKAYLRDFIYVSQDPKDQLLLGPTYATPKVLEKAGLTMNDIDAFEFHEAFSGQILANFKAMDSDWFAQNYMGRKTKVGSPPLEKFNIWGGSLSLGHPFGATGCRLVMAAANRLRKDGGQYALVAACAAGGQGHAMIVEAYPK

Compound: CN[C@@H]1C[C@H]2O[C@@](C)([C@@H]1OC)n1c3ccccc3c3c4c(c5c6ccccc6n2c5c31)C(=O)NC4 [staurosporine]
Assay: log2 fold change of tryptic peptide abundance, ligand vs vehicle (limited proteolysis) (log2 ratio); higher = more trypsin-susceptible (destabilized)
Settings: ligand concentration: 20 uM; sample: mouse liver crude lysate; replicate design: treated separately

Q: With “UniProt Q924Z5 (peptide sequence: REPGYHENGVVK, peptide start residue: 344)” as the target, how does the log2 fold change read?
A: The log2 fold change was 0.117.

Q: How did the log2 fold change turn out when “UniProt Q921D4 (peptide sequence: EAEPLPETVK, peptide start residue: 210)” was run?
A: The log2 fold change was -0.211.

Q: For “UniProt Q99JB2 (peptide sequence: ESMQMQVEAERR, peptide start residue: 188)”, which log2 fold change is on record?
A: Its log2 fold change is 0.176.

Q: “UniProt Q924C6 (peptide sequence: QLGFESALTWAHSAK, peptide start residue: 74)” was tested. Which log2 fold change did it give?
A: Its log2 fold change is 0.238.

Q: For “UniProt Q925J9 (peptide sequence: MEMCSGSNK, peptide start residue: 678)”, which log2 fold change is on record?
A: Its log2 fold change is -0.692.

Q: With “UniProt Q922P9 (peptide sequence: FFGTEDHAWIK, peptide start residue: 46)” as the target, how does the log2 fold change read?
A: The log2 fold change was 0.113.

Q: Which log2 fold change does the source give for “UniProt Q99KU1 (peptide sequence: DQAAVTEQLLR, peptide start residue: 273)” here?
A: The log2 fold change was 0.392.

Q: How did the log2 fold change turn out when “UniProt Q99L85 (peptide sequence: ALLHPVPSR, peptide start residue: 266)” was run?
A: The log2 fold change was 0.25.

Q: With “UniProt Q924T3 (peptide sequence: MAPQELPLQEKER, peptide start residue: 280)” as the target, how does the log2 fold change read?
A: Its log2 fold change is -0.441.

Q: With “UniProt Q99KP6 (peptide sequence: FIASTGMDR, peptide start residue: 489)” as the target, how does the log2 fold change read?
A: The log2 fold change was -0.349.

Q: How did the log2 fold change turn out when “UniProt Q923B3 (peptide sequence: VEELSTSEK, peptide start residue: 605)” was run?
A: Its log2 fold change is -0.106.

Q: “UniProt Q99JV5 (peptide sequence: IKLEGLSDVASISTK, peptide start residue: 15)” was tested. Which log2 fold change did it give?
A: Its log2 fold change is 0.119.

Q: Which log2 fold change does the source give for “UniProt Q99J64 (peptide sequence: QALEELGGRYPR, peptide start residue: 297)” here?
A: Its log2 fold change is -0.35.

Q: Which log2 fold change does the source give for “UniProt Q922D8 (peptide sequence: VLLSALDR, peptide start residue: 355)” here?
A: The log2 fold change was 0.205.

Q: With “UniProt Q924Z4 (peptide sequence: APPNATLEHFYQTSGK, peptide start residue: 78)” as the target, how does the log2 fold change read?
A: Its log2 fold change is 0.228.

Q: With “UniProt Q99L27 (peptide sequence: LDFKDVLLRPK, peptide start residue: 10)” as the target, how does the log2 fold change read?
A: Its log2 fold change is 0.415.

Q: “UniProt Q920D3 (peptide sequence: HWQQVLEDINVQHK, peptide start residue: 138)” was tested. Which log2 fold change did it give?
A: Its log2 fold change is -0.51.

Q: For “UniProt Q99LG2 (peptide sequence: AHYQSFPPPVADFIK, peptide start residue: 76)”, which log2 fold change is on record?
A: The log2 fold change was 0.26.

Q: How did the log2 fold change turn out when “UniProt Q99KN2 (peptide sequence: CICTLSGFHTR, peptide start residue: 243)” was run?
A: The log2 fold change was 0.106.

Q: How did the log2 fold change turn out when “UniProt Q921W0 (peptide sequence: MDDTLFQLK, peptide start residue: 1)” was run?
A: The log2 fold change was -0.368.

Q: How did the log2 fold change turn out when “UniProt Q922B2 (peptide sequence: VFCIGPVFR, peptide start residue: 265)” was run?
A: Its log2 fold change is 0.129.

Q: Which log2 fold change does the source give for “UniProt Q922E6 (peptide sequence: INFHHTSSEDVFTK, peptide start residue: 120)” here?
A: Its log2 fold change is -0.218.

Q: “UniProt Q99LE1 (peptide sequence: FTLQELR, peptide start residue: 297)” was tested. Which log2 fold change did it give?
A: Its log2 fold change is 0.146.

Q: How did the log2 fold change turn out when “UniProt Q923K4 (peptide sequence: TSGPASGLALR, peptide start residue: 53)” was run?
A: Its log2 fold change is 0.273.

Q: For “UniProt Q99KD5 (peptide sequence: AVPMIEGYMFEEHEMIRR, peptide start residue: 776)”, which log2 fold change is on record?
A: Its log2 fold change is -0.571.

Q: How did the log2 fold change turn out when “UniProt Q922Q4 (peptide sequence: CMTNTPVVVR, peptide start residue: 120)” was run?
A: Its log2 fold change is -0.527.

Q: With “UniProt Q91ZV0 (peptide sequence: TDESGSMQYLK, peptide start residue: 444)” as the target, how does the log2 fold change read?
A: Its log2 fold change is 0.715.

Q: How did the log2 fold change turn out when “UniProt Q99JT5 (peptide sequence: LCSEHSTIDPQVSHR, peptide start residue: 138)” was run?
A: The log2 fold change was 0.217.

Q: “UniProt Q922H4 (peptide sequence: AVILIGGPQK, peptide start residue: 4)” was tested. Which log2 fold change did it give?
A: Its log2 fold change is -0.385.

Q: “UniProt Q91ZV8 (peptide sequence: GDGEPEPTGSR, peptide start residue: 1151)” was tested. Which log2 fold change did it give?
A: The log2 fold change was -0.475.

Q: Which log2 fold change does the source give for “UniProt Q921N8 (peptide sequence: QMFGPQVLTTR, peptide start residue: 152)” here?
A: Its log2 fold change is 0.166.

Q: For “UniProt Q921H8 (peptide sequence: AEIVPVTTTVLDDKGDK, peptide start residue: 221)”, which log2 fold change is on record?
A: Its log2 fold change is -0.106.

Q: For “UniProt Q922M3 (peptide sequence: SHHLDEDEERER, peptide start residue: 282)”, which log2 fold change is on record?
A: Its log2 fold change is 0.254.

Q: With “UniProt Q921Y2 (peptide sequence: QVDFLNWEVTDHNLHELR, peptide start residue: 15)” as the target, how does the log2 fold change read?
A: Its log2 fold change is 0.138.

Q: With “UniProt Q924K8 (peptide sequence: NYSHHNGLDGPER, peptide start residue: 575)” as the target, how does the log2 fold change read?
A: The log2 fold change was 0.254.

Q: With “UniProt Q99KK9 (peptide sequence: KGLAPEVADR, peptide start residue: 257)” as the target, how does the log2 fold change read?
A: The log2 fold change was -0.0329.

Q: How did the log2 fold change turn out when “UniProt Q921M3 (peptide sequence: GLLNGASQK, peptide start residue: 1080)” was run?
A: The log2 fold change was -0.405.

Q: With “UniProt Q923D5 (peptide sequence: DDVYEAFMK, peptide start residue: 627)” as the target, how does the log2 fold change read?
A: The log2 fold change was 0.166.

Q: For “UniProt Q922U1 (peptide sequence: FHDKGKFEK, peptide start residue: 329)”, which log2 fold change is on record?
A: Its log2 fold change is 0.379.

Q: With “UniProt Q99JY0 (peptide sequence: KMMLDLNK, peptide start residue: 182)” as the target, how does the log2 fold change read?
A: The log2 fold change was 0.112.
